From article PMC5297248
No constants are given. Whether binding was seen depends on the method and setting. For part of these data: Binding seen in cells or lysates may run through a third protein. Some entries that bind do so weakly or less than the wild type. Each block holds one substance with its values, some of them ahead of it.

Sequences of proteins named here, by UniProt entry; tags and fusion partners are left off.
UniProt P35222: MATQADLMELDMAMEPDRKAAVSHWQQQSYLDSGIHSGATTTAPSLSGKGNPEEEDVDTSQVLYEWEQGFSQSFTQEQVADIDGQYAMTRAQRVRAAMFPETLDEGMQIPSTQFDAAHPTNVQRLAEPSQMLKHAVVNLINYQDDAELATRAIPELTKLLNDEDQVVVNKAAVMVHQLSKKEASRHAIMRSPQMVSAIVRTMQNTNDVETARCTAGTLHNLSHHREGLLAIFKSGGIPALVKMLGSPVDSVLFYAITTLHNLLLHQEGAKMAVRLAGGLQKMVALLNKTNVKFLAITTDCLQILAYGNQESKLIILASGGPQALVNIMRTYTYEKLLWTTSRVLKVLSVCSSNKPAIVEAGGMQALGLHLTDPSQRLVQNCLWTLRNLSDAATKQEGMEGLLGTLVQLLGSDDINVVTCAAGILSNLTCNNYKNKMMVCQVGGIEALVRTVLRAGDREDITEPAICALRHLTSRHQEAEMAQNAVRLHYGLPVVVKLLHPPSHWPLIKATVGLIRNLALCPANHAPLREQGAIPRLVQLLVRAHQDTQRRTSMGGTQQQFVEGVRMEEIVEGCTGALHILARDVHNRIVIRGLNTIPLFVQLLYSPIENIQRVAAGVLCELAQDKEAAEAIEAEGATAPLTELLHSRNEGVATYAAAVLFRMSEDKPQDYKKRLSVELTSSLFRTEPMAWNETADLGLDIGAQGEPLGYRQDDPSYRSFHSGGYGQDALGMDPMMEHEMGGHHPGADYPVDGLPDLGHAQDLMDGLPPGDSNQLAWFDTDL
UniProt P26038: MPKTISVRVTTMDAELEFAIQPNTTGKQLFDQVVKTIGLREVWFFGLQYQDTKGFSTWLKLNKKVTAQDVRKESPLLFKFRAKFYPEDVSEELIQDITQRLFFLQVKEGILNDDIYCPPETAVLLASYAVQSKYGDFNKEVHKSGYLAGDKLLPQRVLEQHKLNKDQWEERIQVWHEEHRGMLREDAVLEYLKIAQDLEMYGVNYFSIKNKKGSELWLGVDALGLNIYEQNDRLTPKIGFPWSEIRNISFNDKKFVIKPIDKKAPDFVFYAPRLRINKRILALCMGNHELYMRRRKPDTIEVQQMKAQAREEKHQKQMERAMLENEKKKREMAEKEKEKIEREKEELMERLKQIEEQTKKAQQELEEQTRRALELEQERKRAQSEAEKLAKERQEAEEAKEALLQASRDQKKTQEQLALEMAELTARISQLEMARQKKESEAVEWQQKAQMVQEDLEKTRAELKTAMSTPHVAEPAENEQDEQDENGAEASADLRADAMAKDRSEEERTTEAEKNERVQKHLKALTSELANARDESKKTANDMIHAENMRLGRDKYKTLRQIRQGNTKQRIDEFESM
UniProt P35241: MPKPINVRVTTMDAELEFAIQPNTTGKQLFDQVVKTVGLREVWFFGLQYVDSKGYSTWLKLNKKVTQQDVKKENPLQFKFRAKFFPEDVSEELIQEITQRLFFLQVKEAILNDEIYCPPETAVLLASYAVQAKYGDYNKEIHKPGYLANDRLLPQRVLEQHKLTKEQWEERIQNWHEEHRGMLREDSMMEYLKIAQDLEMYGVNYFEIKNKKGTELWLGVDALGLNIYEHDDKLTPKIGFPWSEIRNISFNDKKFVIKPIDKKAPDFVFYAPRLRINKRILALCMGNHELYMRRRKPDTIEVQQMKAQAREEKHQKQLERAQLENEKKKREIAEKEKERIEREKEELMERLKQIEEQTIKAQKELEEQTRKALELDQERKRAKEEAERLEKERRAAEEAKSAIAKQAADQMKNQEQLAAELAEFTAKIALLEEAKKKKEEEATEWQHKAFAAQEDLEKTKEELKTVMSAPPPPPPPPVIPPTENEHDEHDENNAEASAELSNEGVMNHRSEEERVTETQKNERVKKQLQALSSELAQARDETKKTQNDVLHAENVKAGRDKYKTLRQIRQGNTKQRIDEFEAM
UniProt P08758: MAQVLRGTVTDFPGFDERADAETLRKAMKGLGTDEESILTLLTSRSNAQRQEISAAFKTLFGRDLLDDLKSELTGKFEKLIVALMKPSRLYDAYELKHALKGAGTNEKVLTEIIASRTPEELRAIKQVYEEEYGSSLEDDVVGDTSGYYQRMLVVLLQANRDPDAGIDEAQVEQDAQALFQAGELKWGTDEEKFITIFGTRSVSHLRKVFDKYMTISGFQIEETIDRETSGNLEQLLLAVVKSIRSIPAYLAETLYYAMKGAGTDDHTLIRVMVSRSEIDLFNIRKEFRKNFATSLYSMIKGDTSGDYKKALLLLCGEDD

Tests used:
[1] = target: T1, δ-Catenin (human (endogenous in primary trophoblasts)) (UniProt O60716); assay: far-Western, overlay or dot blot; plasma membrane fractions of cytotrophoblasts or syncytiotrophoblasts resolved by SDS-PAGE and blotted to nitrocellulose; overlaid 16 h at 4 °C with 0.5 μM AnxA5-CF770 alone or with an excess of unlabelled AnxA5 (1 μM); bands that were competed were identified by nanoLC-LTQ Orbitrap mass spectrometry of tryptic digests (Mascot score >30); only the binder purified
T1 sequence: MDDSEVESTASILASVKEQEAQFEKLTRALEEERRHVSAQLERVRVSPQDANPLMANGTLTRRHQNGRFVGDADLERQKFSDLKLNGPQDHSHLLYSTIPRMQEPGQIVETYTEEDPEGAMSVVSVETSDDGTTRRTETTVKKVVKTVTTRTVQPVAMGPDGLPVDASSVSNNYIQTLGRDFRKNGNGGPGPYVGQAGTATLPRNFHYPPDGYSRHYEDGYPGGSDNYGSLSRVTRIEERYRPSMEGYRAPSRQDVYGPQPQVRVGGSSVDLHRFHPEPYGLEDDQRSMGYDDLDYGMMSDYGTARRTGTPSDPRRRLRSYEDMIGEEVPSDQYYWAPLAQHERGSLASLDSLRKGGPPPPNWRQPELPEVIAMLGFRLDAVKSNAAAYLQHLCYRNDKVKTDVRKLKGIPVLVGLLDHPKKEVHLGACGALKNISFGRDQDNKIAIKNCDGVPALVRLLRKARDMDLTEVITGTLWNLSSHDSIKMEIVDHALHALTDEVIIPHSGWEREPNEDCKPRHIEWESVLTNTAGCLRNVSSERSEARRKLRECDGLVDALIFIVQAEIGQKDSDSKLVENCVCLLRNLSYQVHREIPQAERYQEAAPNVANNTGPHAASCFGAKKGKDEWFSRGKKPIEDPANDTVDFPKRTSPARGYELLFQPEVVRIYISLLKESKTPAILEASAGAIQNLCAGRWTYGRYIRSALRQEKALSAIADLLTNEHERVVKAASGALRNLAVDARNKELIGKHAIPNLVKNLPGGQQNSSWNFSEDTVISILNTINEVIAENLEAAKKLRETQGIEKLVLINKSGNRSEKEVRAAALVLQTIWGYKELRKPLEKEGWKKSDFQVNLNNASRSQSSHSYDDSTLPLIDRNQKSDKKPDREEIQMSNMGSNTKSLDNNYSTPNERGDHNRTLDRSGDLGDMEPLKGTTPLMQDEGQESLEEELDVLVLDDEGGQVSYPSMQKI

[2] = target: β-Catenin (human (endogenous in primary trophoblasts)) (UniProt P35222); assay: as above
[3] = target: Moesin (human (endogenous in primary trophoblasts)) (UniProt P26038); assay: as above
[4] = target: Radixin (human (endogenous in primary trophoblasts)) (UniProt P35241); assay: as above
[5] = target: β-Catenin (human (endogenous in primary trophoblasts)) (UniProt P35222); assay: proximity ligation; Duolink PLA on permeabilized cytotrophoblasts with pairs of specific antibodies; red spots when proximity <40 nm; negative when either antibody was omitted or replaced by nonspecific IgG
[6] = target: β-Catenin (human (endogenous in primary trophoblasts)) (UniProt P35222); assay: co-IP; lysates of cytotrophoblasts cultured 24 h (200 μg protein); antibodies to AnxA5, E-Cadherin, β-Catenin or α-Catenin covalently coupled (BS3) to protein G Dynabeads; immunoblot; control rabbit or mouse IgG
[7] = target: Annexin A5 (human (endogenous in primary trophoblasts)) (UniProt P08758); assay: co-IP; lysates of the cytotrophoblast plasma membrane fraction; antibody to AnxA5 coupled to protein G Dynabeads; immunoblot; control IgG
[8] = target: Annexin A5 (human (endogenous in primary trophoblasts)) (UniProt P08758); assay: co-IP; lysates of cytotrophoblasts cultured 24 h (200 μg protein); antibodies to AnxA5, E-Cadherin, β-Catenin or α-Catenin covalently coupled (BS3) to protein G Dynabeads; immunoblot; control rabbit or mouse IgG
AnxA5-FITC = AnxA5-FITC (UniProt P08758); assay: co-IP; primary trophoblasts incubated with AnxA5-FITC; cell lysates precipitated with an antibody against FITC coupled to protein G Dynabeads; immunoblot; only the target purified

binding [1]: binds | binding [2]: binds | binding [3]: binds | binding [4]: binds
Substance: AnxA5-CF770 (from UniProt P08758 1-320)

binding [5]: binds | binding [6]: binds
Substance: Annexin A5 (from UniProt P08758 1-320)

binding [7]: binds | binding [8]: binds | binding (AnxA5-FITC): binds
Substance: β-Catenin (from UniProt P35222 1-781)
